Assay results taken from paper PMC8508829.
Results are given in words; binding and its absence hold for the method and conditions named. Binding seen in cells or lysates may run through a third protein. Some results given as binding are weak or reduced against the parent protein; the word gives no strength.

Chains of the proteins cited; added tags and fusions are not shown. Lines headed by an entry give the natural chain unless they say otherwise; changes in a name come on top. A line that says so, or that is headed by a name, gives the form on record, which may keep a tag or linker.
mutant NRASD12 (P01111, form named): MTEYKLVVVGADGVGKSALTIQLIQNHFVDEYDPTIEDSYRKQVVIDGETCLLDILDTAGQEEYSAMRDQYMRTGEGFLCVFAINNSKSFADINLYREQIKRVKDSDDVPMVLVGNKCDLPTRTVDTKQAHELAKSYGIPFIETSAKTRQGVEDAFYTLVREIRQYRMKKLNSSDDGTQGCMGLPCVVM

Target: mutant NRASD12 (UniProt P01111)
Experiment: pull-down; GST-Raf1-Ras Binding Domain protein captures RAS-GTP from lysates of Sca-1+ enriched spleen cells of untreated and 75 mg/kg ABT-737 treated (day 33) HR-MDS mice; lysis in 50 mmol/L Tris pH 7.4, 1% NP40, 15% glycerol, 200 mmol/L NaCl, 5 mmol/L MgCl2; Western blot for RAS and hBCL-2

binding: binds
Substance: human BCL-2 (from UniProt P10415 1-239)
